Data as given in PMC8986528.

By UniProt entry, the sequences of proteins in these tests, tags left out.
UniProt Q93009: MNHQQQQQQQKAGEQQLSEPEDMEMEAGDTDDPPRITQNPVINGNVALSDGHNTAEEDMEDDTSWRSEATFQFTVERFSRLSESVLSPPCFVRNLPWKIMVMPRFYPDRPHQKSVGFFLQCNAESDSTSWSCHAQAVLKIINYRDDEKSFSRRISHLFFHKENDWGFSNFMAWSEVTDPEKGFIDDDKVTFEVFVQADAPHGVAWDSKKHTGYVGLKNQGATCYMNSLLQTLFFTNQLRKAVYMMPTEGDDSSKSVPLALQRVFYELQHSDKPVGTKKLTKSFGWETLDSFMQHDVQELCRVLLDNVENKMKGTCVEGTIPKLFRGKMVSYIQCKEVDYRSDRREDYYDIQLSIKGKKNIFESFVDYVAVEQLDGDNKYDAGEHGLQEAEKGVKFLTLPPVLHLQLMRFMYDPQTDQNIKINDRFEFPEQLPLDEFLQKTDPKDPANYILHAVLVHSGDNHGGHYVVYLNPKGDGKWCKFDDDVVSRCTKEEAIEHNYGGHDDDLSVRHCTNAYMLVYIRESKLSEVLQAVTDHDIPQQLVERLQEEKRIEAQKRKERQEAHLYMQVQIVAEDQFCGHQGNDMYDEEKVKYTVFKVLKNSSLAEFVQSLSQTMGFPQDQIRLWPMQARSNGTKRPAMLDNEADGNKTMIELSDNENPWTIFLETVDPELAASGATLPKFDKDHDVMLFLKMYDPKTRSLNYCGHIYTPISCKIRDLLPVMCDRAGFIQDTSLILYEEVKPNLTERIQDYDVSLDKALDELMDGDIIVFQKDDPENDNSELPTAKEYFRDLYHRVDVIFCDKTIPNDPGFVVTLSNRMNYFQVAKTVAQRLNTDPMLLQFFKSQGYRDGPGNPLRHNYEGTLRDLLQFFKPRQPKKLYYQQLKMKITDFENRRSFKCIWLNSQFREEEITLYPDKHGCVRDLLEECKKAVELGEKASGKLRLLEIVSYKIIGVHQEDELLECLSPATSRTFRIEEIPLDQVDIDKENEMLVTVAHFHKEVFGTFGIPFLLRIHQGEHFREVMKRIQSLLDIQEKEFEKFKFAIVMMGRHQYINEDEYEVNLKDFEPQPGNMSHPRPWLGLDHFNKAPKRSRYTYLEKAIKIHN
UniProt Q9H4L4: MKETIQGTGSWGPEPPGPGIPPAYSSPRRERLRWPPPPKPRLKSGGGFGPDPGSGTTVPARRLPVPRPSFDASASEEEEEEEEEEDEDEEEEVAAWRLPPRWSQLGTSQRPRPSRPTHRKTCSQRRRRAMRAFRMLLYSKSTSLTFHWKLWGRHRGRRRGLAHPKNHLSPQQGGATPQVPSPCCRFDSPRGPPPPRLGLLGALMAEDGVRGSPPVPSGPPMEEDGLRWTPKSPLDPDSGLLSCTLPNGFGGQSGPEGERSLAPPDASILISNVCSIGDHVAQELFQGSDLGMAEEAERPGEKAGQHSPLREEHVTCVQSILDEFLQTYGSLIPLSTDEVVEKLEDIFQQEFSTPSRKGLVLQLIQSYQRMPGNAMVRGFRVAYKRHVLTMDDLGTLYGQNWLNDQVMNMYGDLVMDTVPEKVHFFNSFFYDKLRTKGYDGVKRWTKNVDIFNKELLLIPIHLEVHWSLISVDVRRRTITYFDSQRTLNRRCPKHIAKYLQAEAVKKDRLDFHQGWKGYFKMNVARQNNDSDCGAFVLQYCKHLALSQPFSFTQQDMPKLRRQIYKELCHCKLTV
UniProt Q15022: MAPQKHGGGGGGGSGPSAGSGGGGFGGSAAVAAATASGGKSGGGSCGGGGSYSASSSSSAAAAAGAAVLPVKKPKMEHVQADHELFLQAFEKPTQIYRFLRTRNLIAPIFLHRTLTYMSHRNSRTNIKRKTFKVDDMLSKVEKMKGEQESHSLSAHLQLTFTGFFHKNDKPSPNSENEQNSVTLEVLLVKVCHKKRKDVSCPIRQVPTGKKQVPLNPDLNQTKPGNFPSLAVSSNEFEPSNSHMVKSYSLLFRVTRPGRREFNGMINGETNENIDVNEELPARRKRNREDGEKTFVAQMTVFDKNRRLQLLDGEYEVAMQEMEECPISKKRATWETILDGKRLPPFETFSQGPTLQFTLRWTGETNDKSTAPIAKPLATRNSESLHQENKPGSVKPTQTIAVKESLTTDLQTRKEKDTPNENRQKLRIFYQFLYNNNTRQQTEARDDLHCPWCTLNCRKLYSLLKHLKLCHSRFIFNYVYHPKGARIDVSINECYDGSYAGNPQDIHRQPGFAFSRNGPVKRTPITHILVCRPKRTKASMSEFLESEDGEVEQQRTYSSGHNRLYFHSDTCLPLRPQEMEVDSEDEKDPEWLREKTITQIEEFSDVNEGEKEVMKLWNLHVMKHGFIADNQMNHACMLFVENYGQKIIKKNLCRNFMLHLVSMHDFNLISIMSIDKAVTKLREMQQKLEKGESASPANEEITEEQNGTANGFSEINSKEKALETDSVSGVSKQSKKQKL
UniProt Q99496: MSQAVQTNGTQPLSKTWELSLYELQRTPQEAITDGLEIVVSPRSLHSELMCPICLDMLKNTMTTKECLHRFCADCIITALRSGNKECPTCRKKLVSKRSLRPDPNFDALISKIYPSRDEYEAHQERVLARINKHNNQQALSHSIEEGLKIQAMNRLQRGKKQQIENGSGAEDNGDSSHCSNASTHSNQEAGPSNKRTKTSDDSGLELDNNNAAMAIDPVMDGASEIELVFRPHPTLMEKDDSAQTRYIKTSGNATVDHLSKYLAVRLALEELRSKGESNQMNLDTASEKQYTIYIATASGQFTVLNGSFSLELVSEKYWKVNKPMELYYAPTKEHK
UniProt P83916: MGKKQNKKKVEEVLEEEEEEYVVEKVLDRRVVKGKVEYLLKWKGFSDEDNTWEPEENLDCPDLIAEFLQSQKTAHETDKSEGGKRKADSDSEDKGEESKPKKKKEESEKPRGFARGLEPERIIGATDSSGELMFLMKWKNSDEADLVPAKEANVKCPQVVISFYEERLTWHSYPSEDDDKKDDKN
UniProt Q8IZL8: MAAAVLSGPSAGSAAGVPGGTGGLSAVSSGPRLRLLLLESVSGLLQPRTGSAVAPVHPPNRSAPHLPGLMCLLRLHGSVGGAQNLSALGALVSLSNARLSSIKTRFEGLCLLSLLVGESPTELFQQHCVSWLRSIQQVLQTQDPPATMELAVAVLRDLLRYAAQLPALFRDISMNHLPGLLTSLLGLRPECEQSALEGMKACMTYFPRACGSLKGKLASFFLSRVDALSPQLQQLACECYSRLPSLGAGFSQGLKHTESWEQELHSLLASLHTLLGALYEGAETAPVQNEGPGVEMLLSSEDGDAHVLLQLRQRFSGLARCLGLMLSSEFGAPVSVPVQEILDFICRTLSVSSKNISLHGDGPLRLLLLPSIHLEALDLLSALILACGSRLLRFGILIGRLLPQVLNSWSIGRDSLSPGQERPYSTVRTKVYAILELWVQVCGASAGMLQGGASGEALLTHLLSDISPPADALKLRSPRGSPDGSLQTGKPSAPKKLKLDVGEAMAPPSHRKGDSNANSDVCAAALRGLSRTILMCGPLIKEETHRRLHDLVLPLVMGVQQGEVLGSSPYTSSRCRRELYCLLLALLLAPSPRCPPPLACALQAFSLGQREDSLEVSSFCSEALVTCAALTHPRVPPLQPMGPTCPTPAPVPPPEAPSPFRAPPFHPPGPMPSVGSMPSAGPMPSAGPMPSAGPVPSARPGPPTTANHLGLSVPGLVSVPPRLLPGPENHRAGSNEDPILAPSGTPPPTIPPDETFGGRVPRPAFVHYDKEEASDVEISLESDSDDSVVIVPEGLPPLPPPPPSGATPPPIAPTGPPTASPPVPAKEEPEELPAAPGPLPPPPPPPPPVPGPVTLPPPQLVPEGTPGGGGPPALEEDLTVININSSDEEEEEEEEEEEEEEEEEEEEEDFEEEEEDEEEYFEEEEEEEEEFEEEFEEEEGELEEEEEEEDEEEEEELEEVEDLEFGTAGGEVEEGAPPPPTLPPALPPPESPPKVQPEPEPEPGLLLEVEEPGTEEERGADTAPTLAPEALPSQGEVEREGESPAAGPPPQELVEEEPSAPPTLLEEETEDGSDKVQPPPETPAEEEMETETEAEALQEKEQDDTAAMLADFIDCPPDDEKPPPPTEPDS
UniProt Q13185: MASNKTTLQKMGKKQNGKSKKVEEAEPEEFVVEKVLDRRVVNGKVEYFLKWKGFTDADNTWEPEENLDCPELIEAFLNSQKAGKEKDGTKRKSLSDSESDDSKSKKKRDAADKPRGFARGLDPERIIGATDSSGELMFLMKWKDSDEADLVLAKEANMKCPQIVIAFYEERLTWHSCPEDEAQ
UniProt Q969R5: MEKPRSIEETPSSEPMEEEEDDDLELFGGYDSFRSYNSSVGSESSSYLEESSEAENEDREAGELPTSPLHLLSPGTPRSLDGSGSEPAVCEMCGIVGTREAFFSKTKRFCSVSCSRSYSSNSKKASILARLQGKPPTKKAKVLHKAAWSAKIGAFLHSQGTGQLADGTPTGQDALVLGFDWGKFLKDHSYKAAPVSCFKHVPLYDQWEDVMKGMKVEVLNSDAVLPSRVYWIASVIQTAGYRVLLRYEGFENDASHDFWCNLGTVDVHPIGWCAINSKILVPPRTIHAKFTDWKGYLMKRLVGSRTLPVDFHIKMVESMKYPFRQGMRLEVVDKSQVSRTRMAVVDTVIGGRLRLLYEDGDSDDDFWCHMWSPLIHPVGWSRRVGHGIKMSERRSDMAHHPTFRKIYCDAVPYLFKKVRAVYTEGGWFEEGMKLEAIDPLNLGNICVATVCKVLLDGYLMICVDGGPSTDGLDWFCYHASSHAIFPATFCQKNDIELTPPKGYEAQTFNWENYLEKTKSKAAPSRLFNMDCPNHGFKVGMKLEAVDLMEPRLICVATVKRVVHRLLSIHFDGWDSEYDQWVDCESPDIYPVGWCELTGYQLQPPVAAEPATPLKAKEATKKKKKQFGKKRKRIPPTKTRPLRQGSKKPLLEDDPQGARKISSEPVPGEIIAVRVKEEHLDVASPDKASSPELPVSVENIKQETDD
UniProt Q09028: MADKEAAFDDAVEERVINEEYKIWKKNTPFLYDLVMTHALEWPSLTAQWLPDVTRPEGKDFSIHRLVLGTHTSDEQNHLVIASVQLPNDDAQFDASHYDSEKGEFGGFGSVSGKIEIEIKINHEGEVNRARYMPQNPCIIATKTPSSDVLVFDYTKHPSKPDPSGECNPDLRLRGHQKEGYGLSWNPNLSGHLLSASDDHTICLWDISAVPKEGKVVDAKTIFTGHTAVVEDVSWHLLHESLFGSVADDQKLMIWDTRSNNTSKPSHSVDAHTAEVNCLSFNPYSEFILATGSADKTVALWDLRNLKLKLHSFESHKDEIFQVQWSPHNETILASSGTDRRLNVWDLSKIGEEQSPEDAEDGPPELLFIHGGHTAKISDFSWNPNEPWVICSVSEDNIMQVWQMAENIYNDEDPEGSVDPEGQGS
UniProt O75530: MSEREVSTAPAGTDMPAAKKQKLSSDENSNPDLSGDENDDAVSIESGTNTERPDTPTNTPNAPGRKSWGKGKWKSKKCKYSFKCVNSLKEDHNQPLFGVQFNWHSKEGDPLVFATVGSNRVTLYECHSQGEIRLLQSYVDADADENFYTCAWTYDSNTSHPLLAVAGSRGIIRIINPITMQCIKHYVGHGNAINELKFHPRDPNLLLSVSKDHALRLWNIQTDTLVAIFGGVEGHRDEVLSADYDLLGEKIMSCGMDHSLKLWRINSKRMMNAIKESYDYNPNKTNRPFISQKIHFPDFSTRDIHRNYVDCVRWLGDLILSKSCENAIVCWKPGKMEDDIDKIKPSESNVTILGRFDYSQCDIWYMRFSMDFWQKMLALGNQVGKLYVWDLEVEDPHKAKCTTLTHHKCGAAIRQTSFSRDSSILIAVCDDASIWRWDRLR
UniProt P45973: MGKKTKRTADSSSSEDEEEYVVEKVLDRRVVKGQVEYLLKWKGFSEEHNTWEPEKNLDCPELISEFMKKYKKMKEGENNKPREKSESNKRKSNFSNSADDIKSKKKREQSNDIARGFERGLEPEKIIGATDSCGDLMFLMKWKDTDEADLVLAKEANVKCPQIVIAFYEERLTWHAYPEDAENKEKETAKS

T1: 3×Flag–NOL9 (human (endogenous in HEK 293FT)) (UniProt Q5SY16)
T1 sequence: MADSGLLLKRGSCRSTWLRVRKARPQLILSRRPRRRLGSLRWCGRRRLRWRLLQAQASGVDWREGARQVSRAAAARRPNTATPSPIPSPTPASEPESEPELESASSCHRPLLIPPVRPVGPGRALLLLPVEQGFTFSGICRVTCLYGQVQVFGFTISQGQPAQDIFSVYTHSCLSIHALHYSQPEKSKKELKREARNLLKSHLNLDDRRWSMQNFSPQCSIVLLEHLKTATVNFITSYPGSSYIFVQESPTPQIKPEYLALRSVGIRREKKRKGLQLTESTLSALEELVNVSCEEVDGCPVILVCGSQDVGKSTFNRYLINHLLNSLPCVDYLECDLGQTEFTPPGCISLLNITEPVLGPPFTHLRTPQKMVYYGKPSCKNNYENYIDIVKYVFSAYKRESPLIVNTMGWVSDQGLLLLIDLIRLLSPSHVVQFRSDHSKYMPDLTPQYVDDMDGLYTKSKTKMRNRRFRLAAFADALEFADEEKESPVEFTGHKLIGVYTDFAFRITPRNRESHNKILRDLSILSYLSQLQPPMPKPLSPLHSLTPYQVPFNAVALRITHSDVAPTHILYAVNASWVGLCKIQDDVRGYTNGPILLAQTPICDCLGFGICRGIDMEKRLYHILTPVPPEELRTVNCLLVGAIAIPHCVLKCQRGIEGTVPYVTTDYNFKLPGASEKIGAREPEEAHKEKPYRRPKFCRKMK

T2: 3×Flag–WDR18 (human (endogenous in HEK 293FT)) (UniProt Q9BV38)
T2 sequence: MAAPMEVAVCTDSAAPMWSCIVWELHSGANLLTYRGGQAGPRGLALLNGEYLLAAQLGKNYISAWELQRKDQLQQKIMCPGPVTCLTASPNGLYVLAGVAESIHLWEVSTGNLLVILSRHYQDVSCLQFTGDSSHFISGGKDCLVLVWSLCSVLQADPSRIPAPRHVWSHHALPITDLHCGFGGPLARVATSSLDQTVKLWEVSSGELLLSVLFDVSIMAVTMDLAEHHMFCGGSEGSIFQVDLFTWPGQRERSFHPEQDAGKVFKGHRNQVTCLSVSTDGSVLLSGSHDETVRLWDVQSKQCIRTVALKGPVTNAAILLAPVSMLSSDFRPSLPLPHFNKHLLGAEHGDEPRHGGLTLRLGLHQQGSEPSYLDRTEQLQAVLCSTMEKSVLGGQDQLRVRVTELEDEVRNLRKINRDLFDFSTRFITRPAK

T3: PHC2–Flag (human (endogenous in HEK 293FT)) (UniProt Q8IXK0)
T3 sequence: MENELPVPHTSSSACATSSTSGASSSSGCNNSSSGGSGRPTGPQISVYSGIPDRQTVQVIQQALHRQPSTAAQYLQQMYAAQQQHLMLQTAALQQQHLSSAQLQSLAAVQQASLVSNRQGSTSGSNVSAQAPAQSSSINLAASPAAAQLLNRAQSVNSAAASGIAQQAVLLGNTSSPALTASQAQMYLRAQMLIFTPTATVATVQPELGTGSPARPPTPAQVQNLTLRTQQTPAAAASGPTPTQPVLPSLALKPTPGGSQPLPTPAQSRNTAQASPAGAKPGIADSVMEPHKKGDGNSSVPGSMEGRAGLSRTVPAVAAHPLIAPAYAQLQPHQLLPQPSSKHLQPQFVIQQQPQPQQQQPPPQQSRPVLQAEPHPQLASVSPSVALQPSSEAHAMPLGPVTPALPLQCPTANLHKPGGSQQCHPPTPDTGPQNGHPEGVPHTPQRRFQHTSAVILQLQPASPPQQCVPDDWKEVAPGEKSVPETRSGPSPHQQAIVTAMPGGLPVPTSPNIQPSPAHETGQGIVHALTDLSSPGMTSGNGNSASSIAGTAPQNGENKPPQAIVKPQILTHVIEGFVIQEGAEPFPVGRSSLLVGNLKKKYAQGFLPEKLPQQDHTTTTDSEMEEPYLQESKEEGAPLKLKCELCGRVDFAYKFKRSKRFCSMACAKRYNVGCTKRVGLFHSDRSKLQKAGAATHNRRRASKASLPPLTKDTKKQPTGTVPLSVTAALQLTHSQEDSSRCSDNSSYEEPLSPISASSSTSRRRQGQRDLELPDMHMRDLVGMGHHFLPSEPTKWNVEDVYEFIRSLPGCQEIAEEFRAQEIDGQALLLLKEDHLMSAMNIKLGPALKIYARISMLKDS

T4: Flag–CBX4 (human (endogenous in HEK 293FT)) (UniProt O00257)
T4 sequence: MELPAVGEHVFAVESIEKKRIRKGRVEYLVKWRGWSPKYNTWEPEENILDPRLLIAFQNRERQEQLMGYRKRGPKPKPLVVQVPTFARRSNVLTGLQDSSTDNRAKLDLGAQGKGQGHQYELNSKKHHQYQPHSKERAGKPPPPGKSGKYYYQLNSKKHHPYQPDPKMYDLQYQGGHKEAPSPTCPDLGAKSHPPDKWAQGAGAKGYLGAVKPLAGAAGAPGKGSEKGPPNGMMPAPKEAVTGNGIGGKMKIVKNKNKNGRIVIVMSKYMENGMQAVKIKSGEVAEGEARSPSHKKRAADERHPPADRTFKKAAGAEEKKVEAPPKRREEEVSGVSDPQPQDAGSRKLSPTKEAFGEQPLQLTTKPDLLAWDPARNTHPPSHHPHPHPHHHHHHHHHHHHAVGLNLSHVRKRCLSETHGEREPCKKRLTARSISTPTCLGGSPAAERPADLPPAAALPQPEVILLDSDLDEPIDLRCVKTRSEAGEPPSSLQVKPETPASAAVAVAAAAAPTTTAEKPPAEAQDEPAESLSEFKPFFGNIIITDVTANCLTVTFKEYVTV

B1: WDR18 (protein, UniProt Q9BV38 1-432)
chain: T2 sequence
B2: RYBP (protein, UniProt Q8N488 1-228)
chain: MTMGDKKSPTRPKRQAKPAADEGFWDCSVCTFRNSAEAFKCSICDVRKGTSTRKPRINSQLVAQQVAQQYATPPPPKKEKKEKVEKQDKEKPEKDKEISPSVTKKNTNKKTKPKSDILKDPPSEANSIQSANATTKTSETNHTSRPRLKNVDRSTAQQLAVTVGNVTVIITDFKEKTRSSSTSSSTVTSSAGSEQQNQSSSGSESTDKGSSRSSTPKGDMSAVNDESF
B3: TEX10 (protein, UniProt Q9NXF1 1-929)
chain: MTKKRKRQHDFQKVKLKVGKKKPKLQNATPTNFKTKTIHLPEQLKEDGTLPTNNRKLNIKDLLSQMHHYNAGVKQSALLGLKDLLSQYPFIIDAHLSNILSEVTAVFTDKDANVRLAAVQLLQFLAPKIRAEQISPFFPLVSAHLSSAMTHITEGIQEDSLKVLDILLEQYPALITGRSSILLKNFVELISHQQLSKGLINRDRSQSWILSVNPNRRLTSQQWRLKVLVRLSKFLQALADGSSRLRESEGLQEQKENPHATSNSIFINWKEHANDQQHIQVYENGGSQPNVSSQFRLRYLVGGLSGVDEGLSSTENLKGFIEIIIPLLIECWVEAVPPQLATPVGNGIEREPLQVMQQVLNIISLLWKLSKQQDETHKLESWLRKNYLIDFKHHFMSRFPYVLKEITKHKRKEPNKSIKHCTVLSNNIDHLLLNLTLSDIMVSLANASTLQKDCSWIEMIRKFVTETLEDGSRLNSKQLNRLLGVSWRLMQIQPNREDTETLIKAVYTLYQQRGLILPVRTLLLKFFSKIYQTEELRSCRFRYRSKVLSRWLAGLPLQLAHLGSRNPELSTQLIDIIHTAAARANKELLKSLQATALRIYDPQEGAVVVLPADSQQRLVQLVYFLPSLPADLLSRLSRCCIMGRLSSSLAAMLIGILHMRSSFSGWKYSAKDWLMSDVDYFSFLFSTLTGFSKEELTWLQSLRGVPHVIQTQLSPVLLYLTDLDQFLHHWDVTEAVFHSLLVIPARSQNFDILQSAISKHLVGLTVIPDSTAGCVFGVICKLLDHTCVVSETLLPFLASCCYSLLYFLLTIEKGEAEHLRKRDKLWGVCVSILALLPRVLRLMLQSLRVNRVGPEELPVVGQLLRLLLQHAPLRTHMLTNAILVQQIIKNITTLKSGSVQEQWLTDLHYCFNVYITGHPQGPSALATVY

Assays:
[1] = molecular target: T1, 3×Flag–NOL9 (human (endogenous in HEK 293FT)); assay: affinity purification with mass spectrometry; Flag immunoprecipitation from the DNase I-digested chromatin fraction of endogenously tagged HEK 293FT cells (IP buffer 250 mM NaCl, 1% Triton X-100), tandem-mass-tag mass spectrometry against untagged cells, two independent experiments
[2] = molecular target: T2, 3×Flag–WDR18 (human (endogenous in HEK 293FT)); assay: as above
[3] = molecular target: T3, PHC2–Flag (human (endogenous in HEK 293FT)); assay: affinity purification with mass spectrometry; Flag immunoprecipitation from endogenously tagged HEK 293FT cells, on-bead trypsin digest, label-free mass spectrometry against untagged cells, two independent experiments
[4] = molecular target: T4, Flag–CBX4 (human (endogenous in HEK 293FT)); assay: as above

Molecule | binding [1] | binding [2] | binding [3] | binding [4]
USP7 (from UniProt Q93009 1-1102) | binds | binds | – | –
SENP3 (from UniProt Q9H4L4 1-574) | binds | – | – | –
SUZ12 (from UniProt Q15022 1-739) | binds | – | – | –
RING1B (from UniProt Q99496 1-336) | binds | binds | – | –
HP1β (from UniProt P83916 1-185) | no binding | no binding | – | –
MDN1 (from UniProt Q9NU22 1-5596) | binds | – | binds | binds
PELP1 (from UniProt Q8IZL8 1-1130) | binds | – | binds | binds
HP1γ (from UniProt Q13185 1-183) | no binding | no binding | – | –
L3MBTL2 (from UniProt Q969R5 1-705) | binds | – | – | –
RBBP4 (from UniProt Q09028 1-425) | – | binds | – | –
EED (from UniProt O75530 1-441) | binds | – | – | –
HP1α (from UniProt P45973 1-191) | no binding | no binding | – | –
B1 | binds | – | – | binds
B2 | – | binds | – | –
B3 | binds | – | – | –

Results are given in words; binding and its absence hold for the method and conditions named. In cells and extracts the contact can be indirect. Here binding means that the protein was enriched with, or labelled near, the bait; the list need not be complete. For some of these results: No binding means not detected with the bait. Sequences can lack the tags named with a protein.
